Measured values: the supplement of paper PMC8728848
The other results are listed elsewhere or left out.

Columns and labels:
Assay in all cases: glycan array binding signal (z-score within array); higher = stronger binding
Conditions in all cases: glycan notation: IUPAC condensed, linker removed
[1] = target: Fuc(a1-2)[GalNAc(a1-3)]Gal(b1-4)GlcNAc(b1-3)Gal(b1-4)GlcNAc
In short: (§1)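 Glycan array binding is given as a within-array Z-score, which can be read as non-binding when negative. The arrays, 3228 of them, came from the Consortium for Functional Glycomics database and were retained only where the protein sequence was available. Z-scores were averaged across arrays of the same protein sequence at different concentrations or buffers and across linkers.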

[2] = target: Fuc(a1-2)[GalNAc(a1-3)]Gal(b1-4)GlcNAc(b1-3)Gal(b1-4)GlcNAc(b1-3)Gal(b1-4)GlcNAc
In short: as §1

[3] = target: Fuc(a1-2)[GalNAc(a1-3)]Gal(b1-4)GlcNAc(b1-3)GalNAc
In short: as §1

[4] = target: Fuc(a1-2)[GalNAc(a1-3)]Gal(b1-4)[Fuc(a1-3)]GlcNAc
In short: as §1

[5] = target: Fuc(a1-2)[GalNAc(a1-3)]Gal(b1-4)[Fuc(a1-3)]GlcNAc(b1-3)GalNAc
In short: as §1

[6] = target: Fuc(a1-2)[GalNAc(a1-4)]Gal(b1-4)GlcNAc
In short: as §1

[7] = target: Fuc(a1-2)[GalNAc(b1-3)]Gal
In short: as §1

[8] = target: Fuc(a1-3)GlcNAc
In short: as §1

[9] = target: Fuc(a1-3)[Gal(b1-4)]Glc6S
In short: as §1

[10] = target: Fuc(a1-3)[Gal(b1-4)]GlcNAc
In short: as §1

[11] = target: Fuc(a1-3)[Gal(b1-4)]GlcNAc(b1-2)Man
In short: as §1

[12] = target: Fuc(a1-3)[Gal(b1-4)]GlcNAc(b1-2)Man(a1-3)[Fuc(a1-3)[Gal(b1-4)]GlcNAc(b1-2)Man(a1-6)]Man(b1-4)GlcNAc(b1-4)GlcNAc
In short: as §1

[13] = target: Fuc(a1-3)[Gal(b1-4)]GlcNAc(b1-2)Man(a1-3)[Fuc(a1-3)[Gal(b1-4)]GlcNAc(b1-2)Man(a1-6)]Man(b1-4)GlcNAc(b1-4)[Fuc(a1-6)]GlcNAc
In short: as §1

[14] = target: Fuc(a1-3)[Gal(b1-4)]GlcNAc(b1-3)Gal(b1-3)[Fuc(a1-4)]GlcNAc
In short: as §1

[15] = target: Fuc(a1-3)[Gal(b1-4)]GlcNAc(b1-3)GalNAc
In short: as §1

[16] = target: Fuc(a1-3)[Gal(b1-4)]GlcNAc(b1-4)Gal(b1-4)[Fuc(a1-3)]GlcNAc
In short: as §1

[17] = target: Fuc(a1-3)[Gal(b1-4)]GlcNAc(b1-4)Gal(b1-4)[Fuc(a1-3)]GlcNAc(b1-4)Gal(b1-4)[Fuc(a1-3)]GlcNAc
In short: as §1

[18] = target: Fuc(a1-3)[Gal(b1-4)]GlcNAc(b1-6)GalNAc
In short: as §1

[19] = target: Fuc(a1-3)[Gal(b1-4)]GlcNAc(b1-6)[Gal(b1-3)GlcNAc(b1-3)]Gal(b1-4)Glc
In short: as §1

[20] = target: Fuc(a1-3)[Gal(b1-4)]GlcNAc(b1-6)[Neu5Ac(a2-3)Gal(b1-3)]GalNAc
In short: as §1

[21] = target: Fuc(a1-3)[Gal(b1-4)]GlcNAc6S
In short: as §1

[22] = target: Fuc(a1-3)[Gal3S(b1-4)]GlcNAc
In short: as §1

[23] = target: Fuc(a1-3)[Gal3S(b1-4)]GlcNAc6S
In short: as §1

[24] = target: Fuc(a1-3)[GalNAc(b1-4)]GlcNAc
In short: as §1

[25] = target: Fuc(a1-3)[GalNAc(b1-4)]GlcNAc6S
In short: as §1

[26] = target: Fuc(a1-3)[GalNAc3S(b1-4)]GlcNAc
In short: as §1

[27] = target: Fuc(a1-4)GlcNAc
In short: as §1

[28] = target: Fuc(b1-3)GlcNAc
In short: as §1

[29] = target: Gal(a1-2)Gal
In short: as §1

[30] = target: Gal(a1-3)Gal
In short: as §1

[31] = target: Gal(a1-3)Gal(b1-3)GlcNAc
In short: as §1

[32] = target: Gal(a1-3)Gal(b1-3)GlcNAc(b1-2)Man(a1-3)[Gal(a1-3)Gal(b1-3)GlcNAc(b1-2)Man(a1-6)]Man(b1-4)GlcNAc(b1-4)GlcNAc
In short: as §1

[33] = target: Gal(a1-3)Gal(b1-3)GlcNAc(b1-3)GalNAc
In short: as §1

[34] = target: Gal(a1-3)Gal(b1-3)GlcNAc(b1-6)GalNAc
In short: as §1

[35] = target: Gal(a1-3)Gal(b1-3)[Fuc(a1-4)]GlcNAc(b1-2)Man(a1-3)[Gal(a1-3)Gal(b1-3)[Fuc(a1-4)]GlcNAc(b1-2)Man(a1-6)]Man(b1-4)GlcNAc(b1-4)GlcNAc
In short: as §1

[36] = target: Gal(a1-3)Gal(b1-4)Glc
In short: as §1

[37] = target: Gal(a1-3)Gal(b1-4)GlcNAc
In short: as §1

B1: Intelectin-1a (Mus musculus) (protein)
chain: AEWSHPQFEKAEENLDTNRWGNSFFSSLPRSCKEIKQEHTKAQDGLYFLRTKNGVIYQTFCDMTTAGGGWTLVASVHENNMRGKCTVGDRWSSQQGNRADYPEGDGNWANYNTFGSAEAATSDDYKNPGYFDIQAENLGIWHVPNKSPLHNWRKSSLLRYRTFTGFLQHLGHNLFGLYKKYPVKYGEGKCWTDNGPALPVVYDFGDARKTASYYSPSGQREFTAGYVQFRVFNNERAASALCAGVRVTGCNTEHHCIGGGGFFPEGNPVQCGDFASFDWDGYGTHNGYSSSRKITEAAVLLFYR
Q: With B1 as the binder, how does the “glycan array binding signal (z-score)” value [1] read?
A: -0.494

Q: What about the “glycan array binding signal (z-score)” value [2] of the same binder?
A: -0.802

Q: And the “glycan array binding signal (z-score)” value [3]?
A: 0.267

Q: What about the “glycan array binding signal (z-score)” value [4] of the same binder?
A: -1.53

Q: What about the “glycan array binding signal (z-score)” value [5] of the same binder?
A: 0.041

Q: What about the “glycan array binding signal (z-score)” value [6] of the same binder?
A: -1.02

Q: What about the “glycan array binding signal (z-score)” value [7] of the same binder?
A: -0.26

Q: What about the “glycan array binding signal (z-score)” value [8] of the same binder?
A: -0.632

Q: And the “glycan array binding signal (z-score)” value [9]?
A: 0.465

Q: What about the “glycan array binding signal (z-score)” value [10] of the same binder?
A: -0.321

Q: And the “glycan array binding signal (z-score)” value [11]?
A: -1.26

Q: What about the “glycan array binding signal (z-score)” value [12] of the same binder?
A: 1.33

Q: What about the “glycan array binding signal (z-score)” value [13] of the same binder?
A: 0.88

Q: What about the “glycan array binding signal (z-score)” value [14] of the same binder?
A: 1.24

Q: What about the “glycan array binding signal (z-score)” value [15] of the same binder?
A: -0.322

Q: What about the “glycan array binding signal (z-score)” value [16] of the same binder?
A: -0.178

Q: And the “glycan array binding signal (z-score)” value [17]?
A: -0.427

Q: And the “glycan array binding signal (z-score)” value [18]?
A: -0.233

Q: What about the “glycan array binding signal (z-score)” value [19] of the same binder?
A: 0.377

Q: And the “glycan array binding signal (z-score)” value [20]?
A: -0.328

Q: And the “glycan array binding signal (z-score)” value [21]?
A: 0.43

Q: What about the “glycan array binding signal (z-score)” value [22] of the same binder?
A: 0.708

Q: What about the “glycan array binding signal (z-score)” value [23] of the same binder?
A: 0.273

Q: And the “glycan array binding signal (z-score)” value [24]?
A: -0.582

Q: And the “glycan array binding signal (z-score)” value [25]?
A: 1.19

Q: And the “glycan array binding signal (z-score)” value [26]?
A: 0.115

Q: What about the “glycan array binding signal (z-score)” value [27] of the same binder?
A: 0.317

Q: What about the “glycan array binding signal (z-score)” value [28] of the same binder?
A: -0.215

Q: And the “glycan array binding signal (z-score)” value [29]?
A: 1.51

Q: And the “glycan array binding signal (z-score)” value [30]?
A: -1.09

Q: And the “glycan array binding signal (z-score)” value [31]?
A: -0.588

Q: And the “glycan array binding signal (z-score)” value [32]?
A: 2.64

Q: What about the “glycan array binding signal (z-score)” value [33] of the same binder?
A: -0.09

Q: What about the “glycan array binding signal (z-score)” value [34] of the same binder?
A: 0.396

Q: What about the “glycan array binding signal (z-score)” value [35] of the same binder?
A: -0.757

Q: And the “glycan array binding signal (z-score)” value [36]?
A: -0.214

Q: What about the “glycan array binding signal (z-score)” value [37] of the same binder?
A: 0.098
